Measured values reported in the supplement of paper PMC6078165.

System: MDAMB231
Assay: relative JC-1 red fluorescence (viability) vs pre-drug, coculture with fibroblast (fraction); higher = more viable cancer cells
Description: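 JC-1 labelled TNBC cells cocultured 1:1 (1,500 cells each) with CellTrace Violet stained primary or stromal fibroblasts in 384-well plates in FluoroBrite medium, treated with one of 42 anticancer drugs at 0.1, 1, 10 or 100 uM. JC-1 red fluorescence (mitochondrial integrity in cancer cells only) was read by plate reader every 8 h for 72 h. Values are normalised to each well's pre-drug value. The stock of one drug was tenfold lower, so its dose labels may be too high.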

CO[C@@]12[C@H](COC(N)=O)C3=C(C(=O)C(C)=C(N)C3=O)N1C[C@@H]1N[C@@H]12 [Mitomycin C]
relative JC-1 red fluorescence
Details	8 h	16 h	24 h	32 h	40 h	48 h	56 h	64 h	72 h
10 µM, coculture fibroblast: C12385	0.7735 ± 0.0042	0.752 ± 0.015	0.617 ± 0.03	0.632 ± 0.011	0.5799 ± 0.0048	0.555 ± 0.0098	0.515 ± 0.013	0.515 ± 0.023	0.509 ± 0.017
10 µM, coculture fibroblast: H6013	0.8862 ± 0.0059	0.8125 ± 0.0015	0.7827 ± 0.004	0.75482 ± 0.00028	0.708 ± 0.012	0.661 ± 0.0072	0.6398 ± 8.8e-05	0.6084 ± 0.0032	0.573 ± 0.009
10 µM, coculture fibroblast: H6019	0.749 ± 0.021	0.672 ± 0.05	0.594 ± 0.022	0.587 ± 0.014	0.52 ± 0.013	0.495 ± 0.0075	0.452 ± 0.014	0.435 ± 0.022	0.408 ± 0.016
10 µM, coculture fibroblast: H6076	0.912 ± 0.044	0.8 ± 0.057	0.726 ± 0.058	0.7 ± 0.068	0.659 ± 0.068	0.625 ± 0.064	0.602 ± 0.061	0.579 ± 0.053	0.565 ± 0.045
10 µM, coculture fibroblast: H6231	0.939 ± 0.031	0.842 ± 0.041	0.752 ± 0.046	0.716 ± 0.06	0.658 ± 0.064	0.624 ± 0.051	0.591 ± 0.064	0.574 ± 0.062	0.557 ± 0.07
10 µM, coculture fibroblast: HADF	0.88 ± 0.022	0.823 ± 0.033	0.784 ± 0.037	0.746 ± 0.041	0.7 ± 0.044	0.644 ± 0.029	0.634 ± 0.032	0.616 ± 0.028	0.57 ± 0.025
10 µM, coculture fibroblast: HCFa	0.903 ± 0.025	0.832 ± 0.04	0.802 ± 0.034	0.772 ± 0.051	0.705 ± 0.056	0.656 ± 0.053	0.624 ± 0.07	0.6 ± 0.081	0.555 ± 0.092
10 µM, coculture fibroblast: HCPF	0.9294 ± 0.0046	0.831 ± 0.0089	0.759 ± 0.076	0.74 ± 0.097	0.697 ± 0.12	0.671 ± 0.14	0.645 ± 0.15	0.62 ± 0.17	0.613 ± 0.19
10 µM, coculture fibroblast: HHSteC	0.9028 ± 0.0049	0.8563 ± 0.006	0.803 ± 0.017	0.777 ± 0.019	0.731 ± 0.027	0.703 ± 0.029	0.664 ± 0.024	0.642 ± 0.025	0.601 ± 0.028
10 µM, coculture fibroblast: HMF	0.927 ± 0.041	0.811 ± 0.032	0.734 ± 0.048	0.7 ± 0.04	0.65 ± 0.015	0.618 ± 0.024	0.574 ± 0.0078	0.546 ± 0.013	0.522 ± 0.0068
10 µM, coculture fibroblast: HPFa	0.93881 ± 0.00043	0.874 ± 0.0031	0.8064 ± 0.0025	0.7545 ± 0.0053	0.717 ± 0.0077	0.6777 ± 0.0021	0.6322 ± 0.0048	0.594 ± 0.0067	0.5519 ± 0.0021
10 µM, coculture fibroblast: HUF	0.834 ± 0.024	0.724 ± 0.012	0.703 ± 0.048	0.607 ± 0.0093	0.549 ± 0.02	0.539 ± 0.03	0.498 ± 0.043	0.497 ± 0.047	0.49 ± 0.059
10 µM, coculture fibroblast: Hs5	0.846 ± 0.11	0.864 ± 0.05	0.785 ± 0.031	0.737 ± 0.022	0.693 ± 0.0074	0.635 ± 0.0076	0.592 ± 0.013	0.56 ± 0.016	0.537 ± 0.01
10 µM, coculture fibroblast: Hs27A	0.8721 ± 0.0057	0.816 ± 0.017	0.766 ± 0.041	0.744 ± 0.028	0.7 ± 0.02	0.635 ± 0.022	0.657 ± 0.028	0.634 ± 0.025	0.595 ± 0.028
10 µM, coculture fibroblast: Hs343T	0.9523 ± 0.0095	0.828 ± 0.01	0.737 ± 0.011	0.6963 ± 0.0053	0.6341 ± 0.005	0.5824 ± 0.0054	0.526 ± 0.011	0.4923 ± 0.0047	0.4613 ± 0.0008
10 µM, coculture fibroblast: WS1	0.7658 ± 0.0027	0.707 ± 0.022	0.594 ± 0.018	0.5579 ± 0.0048	0.5209 ± 0.0011	0.49688 ± 0.00012	0.45447 ± 0.00037	0.4515 ± 0.00082	0.438 ± 0.013
100 µM, coculture fibroblast: C12385	0.715 ± 0.0099	0.653 ± 0.0093	0.717 ± 0.013	0.626 ± 0.021	0.483 ± 0.099	0.435 ± 0.16	0.433 ± 0.17	0.456 ± 0.18	0.459 ± 0.17
100 µM, coculture fibroblast: H6013	0.8576 ± 0.0073	0.8055 ± 0.0019	0.765 ± 0.0093	0.729 ± 0.021	0.667 ± 0.025	0.666 ± 0.027	0.626 ± 0.019	0.605 ± 0.027	0.57 ± 0.024
100 µM, coculture fibroblast: H6019	0.703 ± 0.018	0.648 ± 0.039	0.663 ± 0.086	0.598 ± 0.1	0.572 ± 0.11	0.576 ± 0.1	0.558 ± 0.096	0.572 ± 0.1	0.556 ± 0.09
100 µM, coculture fibroblast: H6076	0.849 ± 0.022	0.8125 ± 0.0011	0.8149 ± 0.0059	0.824 ± 0.02	0.826 ± 0.02	0.82 ± 0.033	0.849 ± 0.026	0.854 ± 0.037	0.875 ± 0.044
100 µM, coculture fibroblast: H6231	0.852 ± 0.011	0.8 ± 0.036	0.794 ± 0.069	0.796 ± 0.11	0.785 ± 0.14	0.778 ± 0.15	0.765 ± 0.15	0.769 ± 0.16	0.752 ± 0.15
100 µM, coculture fibroblast: HADF	0.8465 ± 0.0018	0.806 ± 0.014	0.76711 ± 0.00032	0.724 ± 0.0086	0.6762 ± 0.0036	0.651 ± 0.0075	0.607 ± 0.025	0.597 ± 0.023	0.542 ± 0.036
100 µM, coculture fibroblast: HCFa	0.8418 ± 0.0084	0.785 ± 0.0059	0.734 ± 0.021	0.6721 ± 0.00086	0.6244 ± 0.0024	0.6121 ± 0.0024	0.5888 ± 0.0048	0.577 ± 0.012	0.5449 ± 0.005
100 µM, coculture fibroblast: HCPF	0.856 ± 0.032	0.767 ± 0.019	0.7072 ± 0.0056	0.686 ± 0.007	0.633 ± 0.012	0.616 ± 0.015	0.6 ± 0.022	0.582 ± 0.02	0.574 ± 0.033
100 µM, coculture fibroblast: HHSteC	0.8526 ± 0.0051	0.813 ± 0.012	0.752 ± 0.019	0.674 ± 0.039	0.597 ± 0.036	0.582 ± 0.056	0.538 ± 0.054	0.515 ± 0.053	0.489 ± 0.046
100 µM, coculture fibroblast: HMF	0.84 ± 0.013	0.762 ± 0.012	0.738 ± 0.015	0.71 ± 0.014	0.6774 ± 0.0034	0.6503 ± 0.0022	0.6501 ± 0.0037	0.6486 ± 0.0064	0.6399 ± 0.0063
100 µM, coculture fibroblast: HPFa	0.87 ± 0.016	0.827 ± 0.023	0.768 ± 0.032	0.69 ± 0.048	0.647 ± 0.069	0.632 ± 0.067	0.582 ± 0.059	0.566 ± 0.059	0.539 ± 0.062
100 µM, coculture fibroblast: HUF	0.775 ± 0.014	0.686 ± 0.011	0.7138 ± 0.0054	0.599 ± 0.014	0.565 ± 0.0063	0.5712 ± 0.0024	0.5352 ± 0.0023	0.559 ± 0.0087	0.549 ± 0.018
100 µM, coculture fibroblast: Hs5	0.8447 ± 0.0048	0.783 ± 0.0094	0.759 ± 0.014	0.721 ± 0.013	0.6788 ± 0.0025	0.6331 ± 0.0054	0.624 ± 0.019	0.6 ± 0.024	0.579 ± 0.02
100 µM, coculture fibroblast: Hs27A	0.853 ± 0.012	0.814 ± 0.017	0.7861 ± 0.0052	0.735 ± 0.015	0.696 ± 0.021	0.695 ± 0.04	0.663 ± 0.058	0.655 ± 0.063	0.611 ± 0.048
100 µM, coculture fibroblast: Hs343T	0.856 ± 0.034	0.78 ± 0.049	0.743 ± 0.048	0.723 ± 0.056	0.667 ± 0.053	0.627 ± 0.05	0.595 ± 0.047	0.588 ± 0.051	0.567 ± 0.049
100 µM, coculture fibroblast: WS1	0.6773 ± 0.0067	0.617 ± 0.012	0.648 ± 0.001	0.578 ± 0.002	0.56 ± 0.0086	0.577 ± 0.0065	0.565 ± 0.02	0.596 ± 0.034	0.594 ± 0.042

± gives the standard deviation of the averaged measurements. The reference is the same well before dosing, and untreated signal decays as well.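 Fibroblast labels denote human fibroblasts, mainly primary ones from uterus (C12385, HUF), lung (H6013), bone (Hs27A), adrenal (HADF) and skin (WS1), plus mammary HMF and breast cancer-associated Hs343T. Cancer cells are basal-like or mesenchymal-like triple-negative breast cancer lines. A hit is a response shift exceeding 3x replicate standard deviation. The tissue of the other fibroblasts is not given here.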
